Data published in patent US12624064 (dated 2026).

How the values were obtained:
[1] = general procedure: Fmoc solid-phase peptide synthesis; Rinkamide RAM; Rink-Amide polystyrene resin; settings: for step yield: purification step; for oxidative folding yield / final HPLC purity: oxidative folding step; for final HPLC purity: UV210; for crude HPLC purity: UV210, scale 100 μmol
[2] = general procedure: Fmoc solid-phase peptide synthesis; Rink-Amide polystyrene; settings: whole synthesis, abs. 210 nm, scale 10 μmol
[3] = whole synthesis, UPLC-MS, UV 210 nm, scale of the general procedure 100 μmol (P1-P3), 10 μmol (P4)

| Substance | step yield [1] | oxidative folding yield [1] [%] | final HPLC purity [1] [%] | crude HPLC purity ([1]; whole synthesis) [%] | other results |
| --- | --- | --- | --- | --- | --- |
| Bivalrudin | 89% |  |  |  | crude LC-MS purity [1, 3]: 40%; final LC-MS purity [1, 3]: 90% |
| H-ELROHLLRWGLTTPD—NH2 | recovery of 85% |  |  |  | crude HPLC purity [2]: 34%; isolated mass ([1]; whole synthesis): 6.2 mg; crude mass ([1]; whole synthesis, scale 10 μmol): 20.3 mg; isolated yield ([1]; whole synthesis, scale of the general procedure 100 μmol (P1-P3), 10 μmol (P4)): 29% |
| H-VRVPGCAHCADSLY-NH2 (cysteine pairing not given here) |  | >99 | 56 | 59 |  |
| H-CRVPGDAHHADSLC-NH2 (cysteine pairing not given here) |  | >99 | 67 | 72 |  |
| H-VRCPGAAHHADSLC-NH2 (cysteine pairing not given here) |  | >99 | 53 | 69 |  |
